Measurements reported in PubChem BioAssay AID1224830 (NIAID, 2016).
Screen: 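Host factors that control LPS-induced TNF expression in human macrophages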 (primary screen). System: human THP-1 monocytic leukaemia cells, TNF dual-luciferase reporter clone, PMA-differentiated to macrophage-like cells. Reagents: siRNA pool against human genes, 50 nM. Duration: LPS for 4 h, given about 3 days after siRNA transfection. Treatment: bacterial LPS (TLR4 ligand), 10 ng/ml. Measured: 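Ratio of firefly to renilla light, scaled to the plate median and expressed as a robust z-score per replicate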. Scale: TNF reporter robust z-score: higher = stronger TNF reporter response to LPS. Rule for the call: 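a well is active when its z-score exceeds 2.8 or falls below -1.5; control wells carry no call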.
The whole screen tested about 18,000 reagents; this is a random part of them. Over the whole deposit, about 2,900 (16%) are marked active. 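Calls are made per well; low scores hint the gene aids the LPS response, high scores that it dampens it.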 Repeated entries: four replicate wells of each siRNA pool.

| Target gene | TNF reporter robust z-score | call |
| --- | --- | --- |
| KRT14 (keratin 14) | -1.56 | active |
| KRT14 (keratin 14) | -0.84 | inactive |
| KRT14 (keratin 14) | -1.08 | inactive |
| KRT14 (keratin 14) | -0.89 | inactive |
| CATSPERB (catsper channel auxiliary subunit beta) | -1.61 | active |
| CATSPERB (catsper channel auxiliary subunit beta) | -1.38 | inactive |
| CATSPERB (catsper channel auxiliary subunit beta) | 0.38 | inactive |
| CATSPERB (catsper channel auxiliary subunit beta) | -1.02 | inactive |
| ANKRD34B (ankyrin repeat domain 34B) | -0.78 | inactive |
| ANKRD34B (ankyrin repeat domain 34B) | -0.14 | inactive |
| ANKRD34B (ankyrin repeat domain 34B) | 1.39 | inactive |
| ERCC6L (ERCC excision repair 6 like DNA helicase) | 0.17 | inactive |
| ERCC6L (ERCC excision repair 6 like DNA helicase) | 0.59 | inactive |
| ERCC6L (ERCC excision repair 6 like DNA helicase) | 0.1 | inactive |
| ERCC6L (ERCC excision repair 6 like DNA helicase) | 1.5 | inactive |
| TAS2R42 (taste 2 receptor member 42) | -0.68 | inactive |
| TAS2R42 (taste 2 receptor member 42) | 1.64 | inactive |
| TAS2R42 (taste 2 receptor member 42) | 1.04 | inactive |
| TAS2R42 (taste 2 receptor member 42) | 0.49 | inactive |
| TFIP11 (tuftelin interacting protein 11) | -0.72 | inactive |
| TFIP11 (tuftelin interacting protein 11) | -0.74 | inactive |
| TFIP11 (tuftelin interacting protein 11) | -1.18 | inactive |
| TFIP11 (tuftelin interacting protein 11) | -0.9 | inactive |
| PYM1 (PYM1 exon junction complex associated factor) | 0.65 | inactive |
| PYM1 (PYM1 exon junction complex associated factor) | 1.3 | inactive |
| PYM1 (PYM1 exon junction complex associated factor) | 0.88 | inactive |
| PYM1 (PYM1 exon junction complex associated factor) | 1.15 | inactive |
| RANBP1 (RAN binding protein 1) | 0.51 | inactive |
| RANBP1 (RAN binding protein 1) | -0.52 | inactive |
| RANBP1 (RAN binding protein 1) | -0.01 | inactive |
| RANBP1 (RAN binding protein 1) | 0.3 | inactive |
| BIK (BCL2 interacting killer) | -1 | inactive |
| BIK (BCL2 interacting killer) | -0.05 | inactive |
| BIK (BCL2 interacting killer) | -0.12 | inactive |
| BIK (BCL2 interacting killer) | -0.28 | inactive |
| ABRA (actin binding Rho activating protein) | -0.68 | inactive |
| ABRA (actin binding Rho activating protein) | -0.77 | inactive |
| ABRA (actin binding Rho activating protein) | -0.04 | inactive |
| ABRA (actin binding Rho activating protein) | -0.23 | inactive |
| PACRG (parkin coregulated) | 1.95 | inactive |
| PACRG (parkin coregulated) | 4.71 | active |
| PACRG (parkin coregulated) | -0.94 | inactive |
| PACRG (parkin coregulated) | -0.01 | inactive |
| TH (tyrosine hydroxylase) | -0.04 | inactive |
| TH (tyrosine hydroxylase) | 0.53 | inactive |
| TH (tyrosine hydroxylase) | 1.09 | inactive |
| TH (tyrosine hydroxylase) | 1.12 | inactive |
| CGA (glycoprotein hormones, alpha polypeptide) | -0.55 | inactive |
| CGA (glycoprotein hormones, alpha polypeptide) | -0.83 | inactive |
| CGA (glycoprotein hormones, alpha polypeptide) | -0.74 | inactive |
| CGA (glycoprotein hormones, alpha polypeptide) | -0.76 | inactive |
| ETNK1 (ethanolamine kinase 1) | 0.54 | inactive |
| ETNK1 (ethanolamine kinase 1) | 0.5 | inactive |
| ETNK1 (ethanolamine kinase 1) | 0.44 | inactive |
| ETNK1 (ethanolamine kinase 1) | 0.95 | inactive |
| SNX27 (sorting nexin 27) | -1.09 | inactive |
| SNX27 (sorting nexin 27) | -1.52 | active |
| SNX27 (sorting nexin 27) | -1.43 | inactive |
| SNX27 (sorting nexin 27) | -0.21 | inactive |
| SRPK3 (SRSF protein kinase 3) | 0.5 | inactive |
| SRPK3 (SRSF protein kinase 3) | 0.51 | inactive |
| SRPK3 (SRSF protein kinase 3) | -0.22 | inactive |
| SRPK3 (SRSF protein kinase 3) | 0.6 | inactive |
| PHF12 (PHD finger protein 12) | -1.39 | inactive |
| PHF12 (PHD finger protein 12) | -1.77 | active |
| PHF12 (PHD finger protein 12) | -0.5 | inactive |
| PHF12 (PHD finger protein 12) | -0.49 | inactive |
| TAPBPL (TAP binding protein like) | -1.21 | inactive |
| TAPBPL (TAP binding protein like) | -0.87 | inactive |
| TAPBPL (TAP binding protein like) | -0.9 | inactive |
| TAPBPL (TAP binding protein like) | -1.13 | inactive |
| MON2 (MON2 regulator of endosome-to-Golgi trafficking) | -0.84 | inactive |
| MON2 (MON2 regulator of endosome-to-Golgi trafficking) | 0.15 | inactive |
| MON2 (MON2 regulator of endosome-to-Golgi trafficking) | 1.42 | inactive |
| MON2 (MON2 regulator of endosome-to-Golgi trafficking) | -0.06 | inactive |
| SRM (spermidine synthase) | -0.59 | inactive |
| SRM (spermidine synthase) | -0.29 | inactive |
| SRM (spermidine synthase) | -0.77 | inactive |
| SRM (spermidine synthase) | 0.16 | inactive |
| RUFY3 (RUN and FYVE domain containing 3) | 0.38 | inactive |
| RUFY3 (RUN and FYVE domain containing 3) | -0.68 | inactive |
| RUFY3 (RUN and FYVE domain containing 3) | 0.03 | inactive |
| RUFY3 (RUN and FYVE domain containing 3) | 0.66 | inactive |
| ODAM (odontogenic, ameloblast associated) | -1.49 | inactive |
| ODAM (odontogenic, ameloblast associated) | -0.55 | inactive |
| ODAM (odontogenic, ameloblast associated) | 1.82 | inactive |
| ODAM (odontogenic, ameloblast associated) | -0.76 | inactive |
| ZNF575 (zinc finger protein 575) | 0.98 | inactive |
| ZNF575 (zinc finger protein 575) | 1.39 | inactive |
| ZNF575 (zinc finger protein 575) | 2.44 | inactive |
| ZNF575 (zinc finger protein 575) | 0.83 | inactive |
| ZC4H2 (zinc finger C4H2-type containing) | 0.27 | inactive |
| ZC4H2 (zinc finger C4H2-type containing) | -0.05 | inactive |
| ZC4H2 (zinc finger C4H2-type containing) | -0.36 | inactive |
| ZC4H2 (zinc finger C4H2-type containing) | -0.22 | inactive |
| NAT8 (N-acetyltransferase 8 (putative)) | 0.67 | inactive |
| NAT8 (N-acetyltransferase 8 (putative)) | 0.88 | inactive |
| NAT8 (N-acetyltransferase 8 (putative)) | -0.32 | inactive |
| NAT8 (N-acetyltransferase 8 (putative)) | 1.22 | inactive |
| CDKN2D (cyclin dependent kinase inhibitor 2D) | 1.5 | inactive |
| CDKN2D (cyclin dependent kinase inhibitor 2D) | 0.44 | inactive |
| CDKN2D (cyclin dependent kinase inhibitor 2D) | 0.98 | inactive |
| CDKN2D (cyclin dependent kinase inhibitor 2D) | 7.45 | active |
| ZNF564 (zinc finger protein 564) | 0.22 | inactive |
| ZNF564 (zinc finger protein 564) | 1.25 | inactive |
| ZNF564 (zinc finger protein 564) | 0.1 | inactive |
| ZNF564 (zinc finger protein 564) | 1.32 | inactive |
| ROBO4 (roundabout guidance receptor 4) | -0.21 | inactive |
| ROBO4 (roundabout guidance receptor 4) | -1.07 | inactive |
| ROBO4 (roundabout guidance receptor 4) | -0.5 | inactive |

A run of entries from the list above, as a working copy:
| Target gene | TNF reporter robust z-score | call |
| --- | --- | --- |
| KRT14 (keratin 14) | -0.84 | inactive |
| KRT14 (keratin 14) | -1.08 | inactive |
| KRT14 (keratin 14) | -0.89 | inactive |
| CATSPERB (catsper channel auxiliary subunit beta) | -1.61 | active |
| CATSPERB (catsper channel auxiliary subunit beta) | -1.38 | inactive |
| CATSPERB (catsper channel auxiliary subunit beta) | 0.38 | inactive |
| CATSPERB (catsper channel auxiliary subunit beta) | -1.02 | inactive |
